Measurements reported in PubChem BioAssay AID1159578 (Peter MacCallum Cancer Centre, 2015).

- Test: 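Genome-wide hunt for genes controlling movement of lymphatic endothelial cells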 (primary screen)
- Cell system: human lymphatic endothelial cells
- Reagents: siRNA pool against human genes, 40 nM
- Time to read-out: 48 h after transfection
- Detection: 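High-content imaging of dye-stained cells in a scratch assay measures filled wound area and nuclei per well; duplicate means given as ratio to mock and robust z-score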
- Scale: migration robust z-score: higher = faster migration into the scratch; nuclei per well: higher = more cells in the well
- Active means: 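Pools averaging fewer than 3300 nuclei are never called; remaining pools count as changed when migration robust z lies outside -2 to 2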
- Calls: active = migration changed; inactive = no migration change, or too few cells
The whole screen tested about 18,000 reagents; shown is a random part of them. About 1,030 of them (5.7%) count as active. 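Inactive calls also include pools with fewer than 3300 nuclei, whose migration was not assessed.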 The raw values are shown without normalisation. Not all columns of the deposit are shown.

RIOK2 (GeneID 55781) [SID255358857]
- migration robust z-score: 1.17
- nuclei per well, duplicate mean: 6990
- call: inactive

OSBPL9 (GeneID 114883) [SID255362266]
- migration robust z-score: 1.46
- nuclei per well, duplicate mean: 5799
- call: inactive

XPO6 (GeneID 23214) [SID255356077]
- migration robust z-score: -0.31
- nuclei per well, duplicate mean: 6363
- call: inactive

ACCS (GeneID 84680) [SID255361463]
- migration robust z-score: -0.43
- nuclei per well, duplicate mean: 5620
- call: inactive

NDFIP1 (GeneID 80762) [SID255360806]
- migration robust z-score: -0.24
- nuclei per well, duplicate mean: 5740
- call: inactive

LOC652759 (retired record) (GeneID 652759) [SID318171909]
- migration robust z-score: -0.57
- nuclei per well, duplicate mean: 5417
- call: inactive

TMEM179B (GeneID 374395) [SID255365319]
- migration robust z-score: 0.58
- nuclei per well, duplicate mean: 6580
- call: inactive

XPO7 (GeneID 23039) [SID255355946]
- migration robust z-score: 0.5
- nuclei per well, duplicate mean: 5276
- call: inactive

Reformatted: entries from further up.
{"gene knocked down":"ACCS (GeneID 84680)","PubChem SID":"SID255361463","migration robust z-score":-0.43,"nuclei per well, duplicate mean":5620,"call":"inactive"}
{"gene knocked down":"NDFIP1 (GeneID 80762)","PubChem SID":"SID255360806","migration robust z-score":-0.24,"nuclei per well, duplicate mean":5740,"call":"inactive"}

More results:
VPS11 (GeneID 55823) [SID255358891]
- migration robust z-score: -2.12
- nuclei per well, duplicate mean: 5199
- call: active

VPS13D (GeneID 55187) [SID255358482]
- migration robust z-score: 0.31
- nuclei per well, duplicate mean: 5990
- call: inactive

SSR1 (GeneID 6745) [SID255352640]
- migration robust z-score: 0.39
- nuclei per well, duplicate mean: 5106
- call: inactive

TGM2 (GeneID 7052) [SID255352851]
- migration robust z-score: 0.76
- nuclei per well, duplicate mean: 4174
- call: inactive

SLC15A2 (GeneID 6565) [SID255352491]
- migration robust z-score: -0.03
- nuclei per well, duplicate mean: 6625
- call: inactive

TMPRSS11A (GeneID 339967) [SID255365060]
- migration robust z-score: 0.36
- nuclei per well, duplicate mean: 5544
- call: inactive

NOTUM (GeneID 147111) [SID255363316]
- migration robust z-score: 0.17
- nuclei per well, duplicate mean: 7092
- call: inactive

STAU1 (GeneID 6780) [SID255352669]
- migration robust z-score: 2.2
- nuclei per well, duplicate mean: 7074
- call: active

B3GALNT1 (GeneID 8706) [SID255353752]
- migration robust z-score: 1.35
- nuclei per well, duplicate mean: 4164
- call: inactive

GRN (GeneID 2896) [SID255350035]
- migration robust z-score: 1.42
- nuclei per well, duplicate mean: 6054
- call: inactive

WLS (GeneID 79971) [SID255360602]
- migration robust z-score: -0.09
- nuclei per well, duplicate mean: 5800
- call: inactive

VAMP3 (GeneID 9341) [SID255354203]
- migration robust z-score: -0.22
- nuclei per well, duplicate mean: 5730
- call: inactive

CCDC25 (GeneID 55246) [SID255358534]
- migration robust z-score: -1.35
- nuclei per well, duplicate mean: 5848
- call: inactive
